Measurements reported in doi:10.1101/2023.10.10.561251.
Results are given in words; binding and its absence hold for the method and conditions named. Binding seen in cells or lysates may run through a third protein. Some results given as binding are weak or reduced against the parent protein; the word gives no strength. Sequences can lack the tags named with a protein.

Target: T1, VIA1-YFP (Arabidopsis VIA1 with a C-terminal YFP) (A. thaliana) (UniProt Q8GW20)
T1 sequence: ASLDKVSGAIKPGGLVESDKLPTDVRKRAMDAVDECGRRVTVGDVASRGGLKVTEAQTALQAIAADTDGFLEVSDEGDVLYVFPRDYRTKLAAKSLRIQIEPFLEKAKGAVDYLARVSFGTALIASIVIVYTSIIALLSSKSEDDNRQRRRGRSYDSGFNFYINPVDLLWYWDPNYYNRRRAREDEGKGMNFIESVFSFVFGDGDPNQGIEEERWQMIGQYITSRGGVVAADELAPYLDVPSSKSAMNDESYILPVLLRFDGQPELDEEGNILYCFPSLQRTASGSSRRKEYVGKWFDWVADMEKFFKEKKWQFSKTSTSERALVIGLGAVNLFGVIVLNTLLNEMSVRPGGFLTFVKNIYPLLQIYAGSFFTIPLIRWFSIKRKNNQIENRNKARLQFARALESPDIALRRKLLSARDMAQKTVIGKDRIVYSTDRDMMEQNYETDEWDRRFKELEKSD
Test: co-IP

binding: binds
B1: VIPP1-FLAG (Arabidopsis VIPP1 with a FLAG tag) (protein, UniProt O80796 65-330)
chain: CNGHGATMNLFERFSRVVKSYANALISSFEDPEKILEQTVIEMNSDLTKMRQATAQVLASQKQLQNKYKAAQQSSDDWYKRAQLALAKGDEDLAREALKRRKSFADNATALKTQLDQQKGVVDNLVSNTRLLESKIQEAKAKKDTLLARARTAKTATKVQEMIGTVNTSGALSAFEKMEEKVMAMESEADALTQIGTDELEGKFQMLETSSVDDDLADLKKELSGSSKKGELPPGRSTVAASTRYPFKDSEIENELNELRRKANDF
